# PubChem BioAssay AID743458 – Peter MacCallum Cancer Centre, 2014
# Test: 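Retest earlier hits with independent siRNAs per gene for restoring vorinostat sensitivity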 (follow-up of hits)
# Cells: human HCT116-VR colon cancer cells made resistant to vorinostat
# Reagent: single siRNA or pool against human genes, 25 nM per single siRNA
# Timing: about 72 h after transfection, including 24 h of drug
# Treatment: vorinostat, 2.5 µM final, for 24 h
# Detection: 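Live-cell fluorescent viability and luminescent caspase 3/7 activity after vorinostat treatment, background subtracted, mean of duplicate plates, as fold change over mock-transfected wells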
# Scale: viability relative to mock: higher = more living cells than mock; caspase activity relative to mock: higher = more apoptosis than mock
# Active means: 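Active means a reduced-viability or caspase-activation class, anything else inactive; classes could only be given to wells that looked healthy when left untreated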
# Shown is one part, drawn at random, of about 1,800 deposited reagents. 732 of all reagents (41%) were called active. 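Calls are per siRNA reagent; a gene was deemed confirmed only if most of its four siRNAs scored.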 A number with no mark means an inactive call. Reagents against one gene are numbered here.
gene symbol,reagent,viability relative to mock,caspase activity relative to mock,viability hit class,caspase hit class
CFAP410 (cilia and flagella associated protein 410),1,0.95,1.71,no change,no change
CFAP410 (cilia and flagella associated protein 410),2,0.86 (active),2.92,no change,caspase activation
CFAP410 (cilia and flagella associated protein 410),3,0.94,1.25,no change,no change
CFAP410 (cilia and flagella associated protein 410),4,1.03,2.15,no change,no change
TMEM208 (transmembrane protein 208),1,0.91,1.13,no change,no change
TMEM208 (transmembrane protein 208),2,1,1,no change,no change
TMEM208 (transmembrane protein 208),3,0.86,1.19,no change,no change
TMEM208 (transmembrane protein 208),4,1,1.77,no change,no change
CDK10 (cyclin dependent kinase 10),1,0.88 (active),4.18,no change,caspase activation
CDK10 (cyclin dependent kinase 10),2,1.01,1.36,no change,no change
CDK10 (cyclin dependent kinase 10),3,0.76,1.38,no change,no change
CDK10 (cyclin dependent kinase 10),4,1.1 (active),5.01,no change,caspase activation
ZBTB2 (zinc finger and BTB domain containing 2),1,1.05,1.21,no change,no change
ZBTB2 (zinc finger and BTB domain containing 2),2,0.94,1.86,no change,no change
ZBTB2 (zinc finger and BTB domain containing 2),3,0.84,0.99,no change,no change
ZBTB2 (zinc finger and BTB domain containing 2),4,0.06,1.74,no change,no change
KIAA1191,1,0.6,2.01,no change,no change
KIAA1191,2,0.26,1.17,no change,no change
KIAA1191,3,0.76,2.38,no change,no change
KIAA1191,4,0.84,1.45,no change,no change
PIPOX (pipecolic acid and sarcosine oxidase),1,0.22 (active),2.68,reduced viability,caspase activation
PIPOX (pipecolic acid and sarcosine oxidase),2,0.82,1.47,no change,no change
PIPOX (pipecolic acid and sarcosine oxidase),3,0.53 (active),2.16,reduced viability,no change
PIPOX (pipecolic acid and sarcosine oxidase),4,0.76,1.89,no change,no change
NTN1 (netrin 1),1,0.72,1.9,no change,no change
NTN1 (netrin 1),2,0.82,1.97,no change,no change
NTN1 (netrin 1),3,0.15 (active),1.33,reduced viability,no change
NTN1 (netrin 1),4,0.6,1.68,no change,no change
TTC33 (tetratricopeptide repeat domain 33),1,0.38,0.85,no change,no change
TTC33 (tetratricopeptide repeat domain 33),2,0.74,1.81,no change,no change
TTC33 (tetratricopeptide repeat domain 33),3,0.7,0.48,no change,no change
TTC33 (tetratricopeptide repeat domain 33),4,0.84,0.89,no change,no change
CGRRF1 (cell growth regulator with ring finger domain 1),1,0.78,2.13,no change,no change
CGRRF1 (cell growth regulator with ring finger domain 1),2,0.8 (active),3.2,no change,caspase activation
CGRRF1 (cell growth regulator with ring finger domain 1),3,1,2.33,no change,no change
CGRRF1 (cell growth regulator with ring finger domain 1),4,0.88,0.94,no change,no change
POLR2J (RNA polymerase II subunit J),1,0.44 (active),4.05,reduced viability,caspase activation
POLR2J (RNA polymerase II subunit J),2,0.76,1.92,no change,no change
POLR2J (RNA polymerase II subunit J),3,0.5 (active),3.64,reduced viability,caspase activation
POLR2J (RNA polymerase II subunit J),4,0.82,1.95,no change,no change
